Experimental findings from patent publication US20240116988A1 (BRISTOL-MYERS SQUIBB COMPANY, priority 2022, published 2024) are described below.

This data set in a line: general procedure: Fmoc solid-phase peptide synthesis; Sieber amide resin (0.71 mmol/g); Rink resin (0.56 mmol/g); 2-chlorotrityl chloride resin (1.54 mmol/g); Fmoc-glycine-2-; HATU. Conditions: conjugation step.

The substance “3-((S)-1-((3R,6S,9S,12S,15S,21S,24S,27S,30S,33S,36S)-15-((1H-indol-3-yl)methyl)-9,36-dibenzyl-12,24,33-tris(4- hydroxybenzyl)-21-(hydroxymethyl)-6,30-diisobutyl-27-isopropyl-10-methyl-5,8,11,14,17,20,23,26,29,32,35,38-dodecaoxo-1-thia-4,7,10,13,16,19,22,25,28,31,34,37-dodecaazacyclononatriacontan- 3-yl)-12-carbamoyl-1,4,7,10,18-pentaoxo-2,5,8,11,17-pentaazatricosan-23-yl)-2-((lE,3E,5E)-5-(3,3-dimethyl-5-sulfo-1-(4-sulfobutyl)indolin-2- ylidene)penta-1,3-dien-1-yl)-3-methyl-3H-indole-5-sulfonic acid” came in with a conjugation yield of 83% yield.
